{"sequences": {"note": "Amino acid sequences for entries named in this document (tags omitted). A change or cut given only in a name is not applied to a line headed by its entry.", "UniProt Q9Y4R8, whole entry": "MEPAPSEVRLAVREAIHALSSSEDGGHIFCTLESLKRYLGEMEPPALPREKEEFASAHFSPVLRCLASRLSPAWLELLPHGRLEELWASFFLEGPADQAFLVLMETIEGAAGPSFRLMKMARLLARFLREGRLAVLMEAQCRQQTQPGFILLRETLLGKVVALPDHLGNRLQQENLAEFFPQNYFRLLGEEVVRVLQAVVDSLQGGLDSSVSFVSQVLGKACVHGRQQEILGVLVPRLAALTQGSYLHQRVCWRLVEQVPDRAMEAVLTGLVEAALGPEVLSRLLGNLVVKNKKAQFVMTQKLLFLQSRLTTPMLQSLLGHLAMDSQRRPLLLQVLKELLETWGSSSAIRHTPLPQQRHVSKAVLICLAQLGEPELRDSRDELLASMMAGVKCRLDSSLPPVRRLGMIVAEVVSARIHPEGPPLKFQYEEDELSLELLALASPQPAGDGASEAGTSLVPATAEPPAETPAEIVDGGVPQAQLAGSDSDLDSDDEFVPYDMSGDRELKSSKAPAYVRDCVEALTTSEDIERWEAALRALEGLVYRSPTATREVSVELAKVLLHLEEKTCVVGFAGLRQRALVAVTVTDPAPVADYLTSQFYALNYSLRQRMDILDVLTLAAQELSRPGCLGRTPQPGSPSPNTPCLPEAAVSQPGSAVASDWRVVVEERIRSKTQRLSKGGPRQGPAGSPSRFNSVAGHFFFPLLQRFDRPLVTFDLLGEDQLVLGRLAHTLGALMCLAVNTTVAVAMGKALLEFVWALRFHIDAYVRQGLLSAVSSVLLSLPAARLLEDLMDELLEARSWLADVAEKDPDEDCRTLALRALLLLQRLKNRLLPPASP", "UniProt Q9Y3V2": "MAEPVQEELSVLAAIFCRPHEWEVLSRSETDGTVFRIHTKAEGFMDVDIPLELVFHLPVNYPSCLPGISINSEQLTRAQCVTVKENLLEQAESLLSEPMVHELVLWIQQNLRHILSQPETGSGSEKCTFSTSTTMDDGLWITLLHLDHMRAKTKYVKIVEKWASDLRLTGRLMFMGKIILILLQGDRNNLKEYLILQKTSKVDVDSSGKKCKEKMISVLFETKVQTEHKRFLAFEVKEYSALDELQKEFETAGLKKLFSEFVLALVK", "UniProt Q9Y5Z9": "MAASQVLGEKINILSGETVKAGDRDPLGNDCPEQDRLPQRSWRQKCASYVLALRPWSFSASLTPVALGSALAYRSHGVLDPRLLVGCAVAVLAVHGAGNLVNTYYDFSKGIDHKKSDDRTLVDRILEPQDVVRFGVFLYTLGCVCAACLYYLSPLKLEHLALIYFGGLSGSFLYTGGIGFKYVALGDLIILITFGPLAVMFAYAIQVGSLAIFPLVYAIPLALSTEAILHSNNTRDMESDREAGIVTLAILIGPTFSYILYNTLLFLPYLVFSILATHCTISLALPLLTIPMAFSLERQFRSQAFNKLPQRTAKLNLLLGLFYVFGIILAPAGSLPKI", "UniProt Q9Y3P8": "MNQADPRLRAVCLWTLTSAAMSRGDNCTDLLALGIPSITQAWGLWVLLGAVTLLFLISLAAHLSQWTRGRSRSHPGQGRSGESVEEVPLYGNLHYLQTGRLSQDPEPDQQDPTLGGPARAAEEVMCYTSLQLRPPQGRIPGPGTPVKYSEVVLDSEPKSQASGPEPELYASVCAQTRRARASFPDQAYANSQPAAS", "UniProt Q9Y3S2": "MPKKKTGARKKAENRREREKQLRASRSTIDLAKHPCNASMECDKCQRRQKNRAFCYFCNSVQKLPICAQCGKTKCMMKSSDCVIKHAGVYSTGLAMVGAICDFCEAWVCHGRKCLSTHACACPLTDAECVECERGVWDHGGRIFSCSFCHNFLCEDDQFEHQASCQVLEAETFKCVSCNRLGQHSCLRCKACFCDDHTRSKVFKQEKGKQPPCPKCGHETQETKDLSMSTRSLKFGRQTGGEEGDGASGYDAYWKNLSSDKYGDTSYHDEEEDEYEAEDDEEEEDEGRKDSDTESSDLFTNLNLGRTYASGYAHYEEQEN", "UniProt Q9Y4W2": "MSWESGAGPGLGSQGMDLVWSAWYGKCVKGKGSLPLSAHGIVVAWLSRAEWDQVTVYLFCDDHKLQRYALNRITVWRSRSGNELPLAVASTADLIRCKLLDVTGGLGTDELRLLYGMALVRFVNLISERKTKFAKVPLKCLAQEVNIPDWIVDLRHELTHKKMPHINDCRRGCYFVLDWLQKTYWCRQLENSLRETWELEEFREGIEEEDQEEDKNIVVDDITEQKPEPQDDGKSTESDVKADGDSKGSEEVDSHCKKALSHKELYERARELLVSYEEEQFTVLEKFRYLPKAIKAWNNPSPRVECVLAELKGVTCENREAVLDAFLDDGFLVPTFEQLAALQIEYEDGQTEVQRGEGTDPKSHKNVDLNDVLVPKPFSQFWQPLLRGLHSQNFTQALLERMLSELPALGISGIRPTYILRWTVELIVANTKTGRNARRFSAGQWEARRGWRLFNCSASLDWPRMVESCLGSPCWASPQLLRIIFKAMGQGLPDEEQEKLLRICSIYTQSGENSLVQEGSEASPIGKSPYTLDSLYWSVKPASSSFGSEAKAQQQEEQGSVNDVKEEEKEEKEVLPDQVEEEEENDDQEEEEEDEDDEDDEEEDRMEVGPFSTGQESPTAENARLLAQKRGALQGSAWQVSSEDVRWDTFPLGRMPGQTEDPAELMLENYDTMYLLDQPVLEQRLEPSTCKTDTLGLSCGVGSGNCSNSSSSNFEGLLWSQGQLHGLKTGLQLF"}, "source": "the supplement of paper PMC6411743", "compound": "Nc1ncnc2c1ncn2[C@@H]1O[C@H](COP(=O)(O)OP(=O)(O)NP(=O)(O)O)[C@@H](O)[C@H]1O [adenylyl imidodiphosphate]", "assay": "NP40-soluble protein abundance relative to vehicle (solubility fold change) (ratio); higher = more soluble protein in presence of AMP-PNP", "in_short": "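Across three independent experiments, values are fold changes against the detergent-processed vehicle for each replicate, based on vsn-normalised intensities. The samples were Jurkat crude lysate treated with eight concentrations (0.1 to 10 mM) for 10 min at room temperature and then 3 min at 37 °C. Lysate was solubilised with 0.8% NP40 and benzonase, ultracentrifuged, and the supernatant analysed by TMT-labelled LC-MS/MS.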", "note": "± gives the standard deviation of the averaged measurements. This is a selection; strong and weak results do not stand in their true shares. Most values lie at the level of the controls, where differences are scatter."}
{"target": "TELO2 (UniProt Q9Y4R8)", "values": [{"measurement": "NP40-soluble protein abundance", "setting": "concentration: 0.1mM", "result": "1.018 ± 0.007"}, {"measurement": "NP40-soluble protein abundance", "setting": "concentration: 0.5mM", "result": "0.991 ± 0.057"}]}
{"target": "UniProt Q9Y3V2 and related entries", "values": [{"measurement": "NP40-soluble protein abundance", "setting": "concentration: 0.1mM", "result": "1.02 ± 0.033"}, {"measurement": "NP40-soluble protein abundance", "setting": "concentration: 0.5mM", "result": "0.998 ± 0.051"}]}
{"target": "UniProt Q9Y5Z9 and related entries", "values": [{"measurement": "NP40-soluble protein abundance", "setting": "concentration: 0.1mM", "result": "1.01 ± 0.021"}, {"measurement": "NP40-soluble protein abundance", "setting": "concentration: 0.5mM", "result": "1.01 ± 0.04"}]}
{"target": "UniProt Q9Y5S9 and related entries", "values": [{"measurement": "NP40-soluble protein abundance", "setting": "concentration: 0.1mM", "result": "0.952 ± 0.016"}, {"measurement": "NP40-soluble protein abundance", "setting": "concentration: 0.5mM", "result": "0.988 ± 0.068"}]}
{"target": "UniProt Q9Y3P8", "values": [{"measurement": "NP40-soluble protein abundance", "setting": "concentration: 0.1mM", "result": "1.01 ± 0.027"}, {"measurement": "NP40-soluble protein abundance", "setting": "concentration: 0.5mM", "result": "1.034 ± 0.0055"}]}
{"target": "ZNF330 (UniProt Q9Y3S2)", "values": [{"measurement": "NP40-soluble protein abundance", "setting": "concentration: 0.1mM", "result": "1 ± 0.017"}, {"measurement": "NP40-soluble protein abundance", "setting": "concentration: 0.5mM", "result": "0.999 ± 0.045"}]}
{"target": "UniProt Q9Y4W2 and related entries", "values": [{"measurement": "NP40-soluble protein abundance", "setting": "concentration: 0.1mM", "result": "0.987 ± 0.015"}, {"measurement": "NP40-soluble protein abundance", "setting": "concentration: 0.5mM", "result": "1 ± 0.033"}]}
